Results published in US6303568A, “Therapeutic antimicrobial polypeptides, their use and methods for preparation” (Helix Biomedix, Inc., priority 1996, dated 2001).
Part of at least one peptide drawing is inferred or uncertain, most often the ends. Ends that are not written are not given here.

Experiments:
Brucella abortus [1] = type: cell-based; conditions: 5 × 10^-5 molar
Brucella abortus [2] = type: in vivo; conditions: 0.176 milligrams/day intramuscularly for 4 days from 12th day post infection; sacrificed 16th day post infection

Q: For “MPKWKVFKKIEKVGRNIRNGIVKAGPAIAVLGEAKAL-NH2 [Cecropin C-37]”, which “Effect on Brucella abortus (growth)” value (Brucella abortus [1]) is on record?
A: Its value is “no growth”.

Q: And the “Concentration of Brucella abortus in BALB/c Mouse Spleen Tissue After 4 Days Treatment” value (Brucella abortus [2])?
A: Its value is 1.59 × 10^3 per gram of spleen.
